{
  "source": "patent US20040053424A1",
  "about": "“Continuous-flow homogeneous biochemical assays based on mass spectrometric detection of known ligands” (priority 2000, published 2004)",
  "test_system": "fab fragments of anti-digoxigenin antibodies (fab anti-digoxigenin)",
  "assay": "homogeneous on-line mass spectrometric biochemical assay, fab anti-digoxigenin / digoxigenin reporter",
  "type": "binding",
  "conditions": "FIG. 3, point 3",
  "procedure": "To a carrier solution consisting of 10 mmol/L ammonium formate/methanol (90:10, v/v) pumped at a flow rate of 50 μl/min a solution of 100 nmol/l fab anti-digoxigenin dissolved in 10 mmol/L ammonium formate was added at a flow rate of 50 μl/min. The mixture was pumped through a knitted 300 μm i.d. poly(tetrafluoroethylene) reaction coil with an internal volume of 65 μl. Subsequently, a solution of 200 nmol/l digoxigenin dissolved in 10 mmol/L ammonium formate/methanol (90:10, v/v) is added at a flow rate of 100 ill/min. The mixture was then pumped through a knitted 300 μm i.d. poly(tetrafluoroethylene) reaction coil with an internal volume of 33 μl and subsequently introduced into a mass spectrometer equipped with an electrospray ionization (ESI) source. Mass spectrometry was operated in selected-ion monitoring (SIM) in the positive-ion (PI) mode on [M+H]+and on one or more intense fragment ions.\nAt point 1, only carrier buffer was pumped into the mass spectrometer providing a reference background signal. At point 2, the digoxigenin pump was switched on leading to an increase of the selected-ion monitoring MS signal at m/z 408 (the ammonium adduct of digoxigenin). At point 3, the fab anti-digoxigenin pump was switched on.",
  "note": "At least one structure is not confirmed: it was looked up by name or label, or the drawing left a doubt.",
  "data": [
    {"smiles": "C[C@]12CC[C@H](O)C[C@H]1CC[C@@H]1[C@@H]2C[C@@H](O)[C@]2(C)[C@@H](C3=CC(=O)OC3)CC[C@]12O", "note": "[digoxigenin]", "values": [
      {"measurement": "effect of adding fab anti-digoxigenin on free reporter ligand (SIM MS signal at m/z 408)", "result": "decrease of the concentration of free digoxigenin"}
    ]}
  ]
}
